# PubChem BioAssay AID493014 (National Center for Advancing Translational Sciences (NCATS), 2011)
# The other results are listed elsewhere or left out. These are further read-outs of the screen, such as a control signal, another cell line or another target. No call is given for them. Compounds called inactive in the main read-out are mostly missing here. Potencies come from curve fits of mixed quality, noted in brackets.
# Experiment: qHTS Assay to Find Inhibitors of Chronic Active B-Cell Receptor Signaling
# Details: ABC-DLBCL IkBa-CBG/CBR reporter, luminescence ratio (green luciferase fused to IkBa over red control in TMD8 lymphoma cells), 4 h; measured here: CBR red luminescence, cell number
# Method in brief: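 TMD8 human ABC-DLBCL cells with doxycycline-inducible IκBα–green luciferase fusion and unfused red luciferase, in 0.5% FBS medium; compounds up to 46 uM, 4 h at 37C. Green/red luminescence ratio, filter-overlap corrected, fitted to concentration-response curves.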
row,SMILES,AC50
1,O=[N+]([O-])c1ccc(CN2CCN(c3ccc4ccccc4n3)CC2)cc1,"35.5 µM [rising, single point]"
2,CNC(=O)/C=C/c1cccc(C(F)(F)F)c1,"6.51 µM [rising, full curve, poor fit]"
3,Cc1ccc(S(C)=O)cc1-n1c(=O)n(Cc2ccccc2)c(=O)c2[nH]cnc21 (configuration not stated),"2.82 µM [rising, single point]"
4,Cc1cccc(NC(=O)Cn2cnc3c(oc4ccccc43)c2=O)c1,"22.4 µM [rising, single point]"
5,COc1ccc(CCNC(=O)C(=O)NCC(c2ccco2)S(=O)(=O)c2ccc(F)cc2)cc1 (configuration not stated),"7.94 µM [rising, single point]"
6,CCCCn1c(C)nc2cc(S(=O)(=O)N3CCOCC3)ccc21,"23.1 µM [rising, partial curve, poor fit]"
7,C=CCCC(=O)Nc1ccc(COC(=O)N2CCOCC2)cc1,"6.51 µM [falling, single point]"
8,CC(=O)N1/C(=C/c2ccc(N(C)C)cc2)C(=O)c2ccccc21,"35.5 µM [falling, single point]"
9,C=CCOc1cccc(C(=O)N2CCC(CCC(=O)NC3CC3)CC2)c1,"6.31 µM [falling, partial curve, poor fit]"
10,COc1ccc(CNC(=O)CN(C(=O)CCC(=O)Nc2ccccn2)c2ccccc2OC)cc1,"3.98 µM [falling, partial curve, poor fit]"
11,COC(=O)CCCCCNc1ccc(C(=O)OC)cc1N,"8.2 µM [falling, partial curve]"
12,CC(=O)C1=C(O)C(=O)N(c2nccs2)C1c1ccc(Br)cc1 (configuration not stated),"2.59 µM [rising, partial curve, poor fit]"
13,O=C(Nc1ccccc1)OCc1cc(-c2ccccc2Cl)on1,"1.78 µM [rising, full curve, poor fit]"
14,O=C(Nc1ccc(N2CCCCCC2)cc1)c1ccc[nH]1,"20.6 µM [falling, partial curve]"
15,C/C(=N/Nc1ccc([N+](=O)[O-])cc1)c1ccc(C)cc1C,"0.708 µM [rising, partial curve]"
16,CNC(=O)c1c(Br)cnn1-c1ccc(C)cc1,"25.1 µM [rising, single point]"
17,COc1cc(-c2ccc(Nc3ccccc3C(=O)O)c(OC)c2)ccc1Nc1ccccc1C(=O)O,"11.2 µM [falling, single point]"
18,O=C(/C=C\c1ccccc1[N+](=O)[O-])Nc1ccccc1,"8.91 µM [falling, partial curve, poor fit]"
19,COc1ccccc1-n1c(C)nc(=O)c(-c2ccccc2)c1C,"4.61 µM [rising, full curve, poor fit]"
20,O=Nc1c(-c2ccccc2)[nH]n(-c2ccccc2)c1=O,"11.2 µM [falling, partial curve]"
21,CCCC(=O)Nc1ccc(-c2nc3cc(C)ccc3o2)cc1,"7.31 µM [falling, partial curve, poor fit]"

row,SMILES,AC50
1,Cc1ccc2c(c1)sc(C)[n+]2CCCS(=O)(=O)[O-],"0.708 µM [rising, full curve, poor fit]"
2,CC(C)c1nn2c(=O)cc(COc3cccc(NC(=O)c4ccco4)c3)nc2s1,"0.631 µM [falling, full curve]"
3,CCOC(=O)N/N=C/c1cn(Cc2ccccc2Cl)c2ccccc12,"29.1 µM [falling, single point]"
4,CCC(C)NC(=O)c1cnn2c(C)c3c(nc12)CCCC3 (configuration not stated),"5.62 µM [rising, single point]"
5,CNc1ccc(Br)cc(C(=O)/C=C/c2ccc(Cl)cc2Cl)c1=O,"11.2 µM [falling, single point]"
6,CC(C)C(=O)Nc1nnc(COc2ccc(Cl)cc2)s1,"15.8 µM [rising, partial curve, poor fit]"
7,COC(=O)C1=C(C)N(Cc2ccccc2)C(=NCCc2cccnc2)N[C@H]1c1ccccc1,"35.5 µM [falling, single point]"
8,CCOC(=O)c1cc(-c2ccccc2)n(CC(=O)Nc2cc(OC)cc(OC)c2)c1C,"9.2 µM [rising, partial curve]"
9,CCC(=O)N(CCC(c1ccco1)C(C)C)Cc1ccccc1 (configuration not stated),"22.4 µM [falling, single point]"
10,CSc1ccccc1Nc1ncnc(N)n1,"17.8 µM [falling, single point]"
11,CCN(CC)S(=O)(=O)c1ccc(-c2nnc(SCC(=O)Nc3ccc(OC)cc3)o2)cc1,"20.6 µM [rising, partial curve]"
12,Cc1ccc(S(=O)(=O)NCc2ccc(C(=O)NC3CCC(O)CC3)cc2)cc1C (configuration not stated),"29.1 µM [rising, single point]"
13,COc1ccc(-c2nn(Cc3ccccc3)cc2C(=O)N2CCN(c3ccccn3)CC2)cc1OC,"6.51 µM [rising, single point]"
14,CC1CCN(c2ccc(/C=N\Nc3nncn3N)cc2[N+](=O)[O-])CC1,"6.51 µM [rising, single point]"
15,CCCc1cc(NCCCn2ccnc2)n2nc(C)c(-c3ccccc3)c2n1,"2.82 µM [rising, single point]"
16,O=C(COc1ccc(NC(=O)c2cccs2)cc1)c1ccc(F)cc1,"14.1 µM [rising, single point]"
17,COC(=O)C/C=N/N=C1/NC(=O)/C(=C/C(=O)O)S1,"3.16 µM [falling, full curve]"
18,CC(=O)n1nc(-c2ccncc2)nc1SCC(=O)Nc1cccc(Cl)c1,"8.91 µM [falling, partial curve]"
19,NC(=O)c1ccc(C(F)(F)F)n(Cc2ccc(F)c(F)c2)c1=O,"12.6 µM [falling, partial curve, poor fit]"
20,NNC(=O)c1ccc(COc2ccc([N+](=O)[O-])cc2)o1,"0.112 µM [falling, full curve, poor fit]"
21,Cc1ccc(-c2n[nH]c(=O)c3ccccc23)cc1S(=O)(=O)Nc1ccccc1,"1.46 µM [falling, partial curve, poor fit]"

# 2 entries from above, bar-delimited:
row | SMILES | AC50
1 | Cc1ccc2c(c1)sc(C)[n+]2CCCS(=O)(=O)[O-] | 0.708 µM [rising, full curve, poor fit]
2 | CC(C)c1nn2c(=O)cc(COc3cccc(NC(=O)c4ccco4)c3)nc2s1 | 0.631 µM [falling, full curve]
